Data source: PubChem BioAssay AID652243 (Drosophila RNAi Screening Center, 2013)

Screen: 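Fly regulators of androgen-dependent reporter output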 (primary screen)
Cell system: Drosophila S2R+ cells
Reagent: long dsRNA against Drosophila genes
Duration: 72 h (48 h, then 24 h hormone)
Challenge: synthetic androgen R1881 at 10 nM for 24 h
Read-out: 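Per-well raw luminescence of the androgen-driven firefly reporter and of the Renilla control, two replicates each, without normalisation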
Scale: firefly reporter light: higher = more light from androgen-responsive reporter; Renilla control light: higher = more constitutive control signal (cell number, transfection)
Rule for the call: 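Hit when the log firefly-to-Renilla ratio dropped or increased by a fixed fold versus the mean of GFP or LacZ controls across duplicate plates; lowering cut given as 1.5 and as 3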
Calls: active = hit: reporter lowered or raised; inactive = no hit
In all, the deposit lists about 24,000 reagents; this is an unselected part of those that have a named target and a result. Over the whole deposit, 246 (1%) are marked active. 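Plates not normalised; calls are printed but the firefly/Renilla ratio behind them is not deposited; fold cut for lowering reported inconsistently.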 Raw values vary from plate to plate and are shown uncorrected. Names joined by + are all predicted targets of the reagent. Not given: the amount of reagent.

| gene | DRSC id | firefly reporter light, replicate 1 | firefly reporter light, replicate 2 | Renilla control light, replicate 1 | Renilla control light, replicate 2 | outcome |
| --- | --- | --- | --- | --- | --- | --- |
| CG8209 | DRSC10970 | 3.34e5 | 2.19e5 | 4.41e6 | 2.77e6 | inactive |
| CG8209 | DRSC28217 | 8.92e5 | 1.20e6 | 1.32e6 | 1.80e6 | inactive |
| Dab (Disabled) | DRSC11140 | 3.78e5 | 4.22e5 | 2.24e6 | 2.42e6 | inactive |
| CG43901 | DRSC19397 | 2.97e5 | 2.99e5 | 2.43e6 | 3.07e6 | inactive |
| CG43901 | DRSC22791 | 5.15e5 | 7.72e5 | 1.57e6 | 1.91e6 | inactive |
| CG43901 | DRSC27031 | 4.89e5 | 4.60e5 | 7.84e5 | 6.38e5 | inactive |
| CG43901 | DRSC29119 | 5.11e5 | 6.67e5 | 1.48e6 | 1.74e6 | inactive |
| CG18540 | DRSC06767 | 98584 | 67280 | 1.35e6 | 1.35e6 | inactive |
| CG18540 | DRSC26991 | 3.91e5 | 3.77e5 | 5.70e5 | 5.14e5 | inactive |
| Gem4b + Gem4c | DRSC17294 | 7.30e5 | 5.78e5 | 7.90e5 | 6.35e5 | inactive |
| CG14803 | DRSC18556 | 3.10e5 | 3.36e5 | 4.35e6 | 3.46e6 | inactive |
| Dsor1 (Downstream of raf1) | DRSC18462 | 1.05e5 | 97052 | 7.82e5 | 7.66e5 | inactive |
| Dsor1 (Downstream of raf1) | DRSC27547 | 1.86e5 | 2.38e5 | 6.23e5 | 8.64e5 | inactive |
| CG1986 | DRSC18197 | 2.33e5 | 2.84e5 | 1.90e6 | 1.70e6 | inactive |
| CG1986 | DRSC27916 | 5.95e5 | 5.23e5 | 2.06e6 | 1.60e6 | inactive |
| CG13603 | DRSC14606 | 77490 | 1.18e5 | 5.89e5 | 5.71e5 | inactive |
| CG44774 | DRSC18342 | 1.48e5 | 1.99e5 | 1.66e6 | 2.11e6 | inactive |
| CG44774 | DRSC27595 | 3.89e5 | 3.14e5 | 3.59e5 | 5.80e5 | inactive |
| CG6978 | DRSC18409 | 4.72e5 | 6.90e5 | 2.99e6 | 2.62e6 | inactive |
| CG14989 | DRSC08448 | 9.93e5 | 4.89e5 | 1.47e6 | 1.35e6 | inactive |
| CG14989 | DRSC25585 | 5.26e5 | 6.35e5 | 7.96e5 | 6.71e5 | inactive |
| tei (teiresias) | DRSC07616 | 52007 | 52904 | 1.25e6 | 1.25e6 | inactive |
| tei (teiresias) | DRSC23756 | 6.74e5 | 3.94e5 | 4.23e5 | 4.54e5 | inactive |
| CG7791 | DRSC04891 | 1.19e6 | 7.30e5 | 1.33e6 | 1.27e6 | inactive |

Single entries from the entries so far:
CG14989 [DRSC08448], firefly reporter light, replicate 1 → 9.93e5
Value for CG18540 [DRSC26991] under “Renilla control light, replicate 2”: 5.14e5
Entry of CG7791 [DRSC04891] under “Renilla control light, replicate 2”: 1.27e6
